Results are given in words; binding and its absence hold for the method and conditions named. Binding seen in cells or lysates may run through a third protein. Binding can be weak; no strength is given.

By UniProt entry, the sequences of proteins in these tests, tags left out. Where a name states a change or a piece, a line headed by the entry shows the natural chain unless it says otherwise.
UniProt Q07335: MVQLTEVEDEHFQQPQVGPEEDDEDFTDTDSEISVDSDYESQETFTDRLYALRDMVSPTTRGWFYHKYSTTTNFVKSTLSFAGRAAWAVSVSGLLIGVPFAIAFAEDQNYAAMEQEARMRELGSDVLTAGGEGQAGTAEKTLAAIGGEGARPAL
UniProt V5ILY4: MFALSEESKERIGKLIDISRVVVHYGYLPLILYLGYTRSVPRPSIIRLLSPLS

In this assay the target is Tom22 with a hexahistidine tag at the C-terminus (Neurospora crassa) (UniProt Q07335). Briefly: co-purification (Ni-NTA affinity and anion exchange chromatography, SDS-PAGE with Coomassie staining); mitochondria solubilised in 1% n-dodecyl-β-D-maltoside, 20% glycerol, 300 mM NaCl, 20 mM imidazole, 20 mM Tris-HCl pH 8.5; His-tagged Tom22 held on Ni-NTA, eluted with 300 mM imidazole; then Resource Q, 0-500 mM KCl.

Tom7 (from UniProt V5ILY4): the binding entry is recorded as “binds”.

The values are drawn from publication PMC9114391.
